Assay results from the supplement of paper PMC11732987, “Enantioselective OTUD7B fragment discovery through chemoproteomics screening and high-throughput optimisation” (Communications Chemistry, 2025).
This is one part of the list. The data scatter; read single values as rough.

Chains of the proteins cited; added tags and fusions are not shown. Lines headed by an entry give the natural chain unless they say otherwise; changes in a name come on top. Residues count along the entry.
UniProt P27448: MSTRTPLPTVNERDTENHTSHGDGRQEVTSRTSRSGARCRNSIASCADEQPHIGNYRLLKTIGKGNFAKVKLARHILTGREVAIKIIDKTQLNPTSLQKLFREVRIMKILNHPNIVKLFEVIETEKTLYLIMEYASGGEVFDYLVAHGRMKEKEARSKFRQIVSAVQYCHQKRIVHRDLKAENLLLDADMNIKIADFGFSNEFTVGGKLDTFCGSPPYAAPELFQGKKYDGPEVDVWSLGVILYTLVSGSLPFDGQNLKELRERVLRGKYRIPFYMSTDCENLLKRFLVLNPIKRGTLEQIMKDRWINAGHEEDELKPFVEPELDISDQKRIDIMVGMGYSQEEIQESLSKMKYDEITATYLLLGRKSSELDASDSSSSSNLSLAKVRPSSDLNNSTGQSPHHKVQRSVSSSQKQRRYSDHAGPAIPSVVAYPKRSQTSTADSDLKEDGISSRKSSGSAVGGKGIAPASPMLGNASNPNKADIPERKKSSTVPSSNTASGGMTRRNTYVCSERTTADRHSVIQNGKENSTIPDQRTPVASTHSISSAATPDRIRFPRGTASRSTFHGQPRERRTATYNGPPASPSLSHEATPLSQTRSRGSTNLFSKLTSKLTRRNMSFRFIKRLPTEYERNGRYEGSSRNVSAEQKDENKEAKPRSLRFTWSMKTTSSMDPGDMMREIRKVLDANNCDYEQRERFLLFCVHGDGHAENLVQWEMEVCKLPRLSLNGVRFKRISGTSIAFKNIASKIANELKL
UniProt P07948: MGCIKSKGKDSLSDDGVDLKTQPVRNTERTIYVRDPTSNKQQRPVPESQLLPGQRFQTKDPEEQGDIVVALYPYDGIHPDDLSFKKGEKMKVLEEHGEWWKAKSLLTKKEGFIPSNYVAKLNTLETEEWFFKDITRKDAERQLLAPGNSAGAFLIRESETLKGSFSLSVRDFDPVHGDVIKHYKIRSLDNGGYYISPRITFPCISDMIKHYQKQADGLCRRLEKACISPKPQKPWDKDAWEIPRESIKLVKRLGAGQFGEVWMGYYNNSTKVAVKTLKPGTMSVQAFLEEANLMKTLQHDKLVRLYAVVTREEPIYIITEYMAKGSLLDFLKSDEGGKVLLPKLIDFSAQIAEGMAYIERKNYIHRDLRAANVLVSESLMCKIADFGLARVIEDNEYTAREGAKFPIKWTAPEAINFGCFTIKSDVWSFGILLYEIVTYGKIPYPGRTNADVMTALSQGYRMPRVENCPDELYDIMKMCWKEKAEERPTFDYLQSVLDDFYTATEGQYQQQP
UniProt Q9UDY8, 311-341: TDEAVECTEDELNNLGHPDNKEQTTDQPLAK
UniProt P78559, 1069-1096: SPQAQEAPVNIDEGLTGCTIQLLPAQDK
UniProt P46734: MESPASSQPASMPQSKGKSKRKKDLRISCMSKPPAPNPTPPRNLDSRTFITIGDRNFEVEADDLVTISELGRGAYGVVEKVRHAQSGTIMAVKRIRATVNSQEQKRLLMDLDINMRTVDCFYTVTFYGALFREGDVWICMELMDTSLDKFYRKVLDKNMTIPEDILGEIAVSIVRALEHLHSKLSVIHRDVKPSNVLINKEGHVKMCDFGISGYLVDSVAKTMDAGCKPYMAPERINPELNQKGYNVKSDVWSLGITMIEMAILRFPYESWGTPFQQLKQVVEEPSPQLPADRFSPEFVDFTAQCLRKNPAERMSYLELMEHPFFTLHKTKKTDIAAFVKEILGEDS
UniProt Q14566: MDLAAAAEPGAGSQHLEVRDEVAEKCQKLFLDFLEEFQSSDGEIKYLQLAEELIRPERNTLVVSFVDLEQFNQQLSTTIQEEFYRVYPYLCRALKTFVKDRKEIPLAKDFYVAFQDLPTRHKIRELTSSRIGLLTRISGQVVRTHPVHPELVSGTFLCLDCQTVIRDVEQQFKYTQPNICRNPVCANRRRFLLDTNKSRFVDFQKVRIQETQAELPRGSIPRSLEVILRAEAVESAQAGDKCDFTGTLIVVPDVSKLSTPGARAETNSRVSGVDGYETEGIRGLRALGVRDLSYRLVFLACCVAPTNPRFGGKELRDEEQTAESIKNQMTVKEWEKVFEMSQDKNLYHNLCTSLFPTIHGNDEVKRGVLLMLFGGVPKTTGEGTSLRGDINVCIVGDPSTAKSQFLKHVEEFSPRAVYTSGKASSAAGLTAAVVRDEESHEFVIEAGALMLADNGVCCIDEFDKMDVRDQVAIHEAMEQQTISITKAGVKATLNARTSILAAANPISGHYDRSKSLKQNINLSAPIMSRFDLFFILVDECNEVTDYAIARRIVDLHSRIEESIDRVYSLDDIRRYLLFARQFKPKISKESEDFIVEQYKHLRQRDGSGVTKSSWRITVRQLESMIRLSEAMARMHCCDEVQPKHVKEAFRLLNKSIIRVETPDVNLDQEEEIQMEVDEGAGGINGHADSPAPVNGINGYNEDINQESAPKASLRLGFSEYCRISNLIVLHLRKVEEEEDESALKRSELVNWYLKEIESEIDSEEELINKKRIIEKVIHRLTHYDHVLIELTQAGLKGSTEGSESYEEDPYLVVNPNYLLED
UniProt Q14703: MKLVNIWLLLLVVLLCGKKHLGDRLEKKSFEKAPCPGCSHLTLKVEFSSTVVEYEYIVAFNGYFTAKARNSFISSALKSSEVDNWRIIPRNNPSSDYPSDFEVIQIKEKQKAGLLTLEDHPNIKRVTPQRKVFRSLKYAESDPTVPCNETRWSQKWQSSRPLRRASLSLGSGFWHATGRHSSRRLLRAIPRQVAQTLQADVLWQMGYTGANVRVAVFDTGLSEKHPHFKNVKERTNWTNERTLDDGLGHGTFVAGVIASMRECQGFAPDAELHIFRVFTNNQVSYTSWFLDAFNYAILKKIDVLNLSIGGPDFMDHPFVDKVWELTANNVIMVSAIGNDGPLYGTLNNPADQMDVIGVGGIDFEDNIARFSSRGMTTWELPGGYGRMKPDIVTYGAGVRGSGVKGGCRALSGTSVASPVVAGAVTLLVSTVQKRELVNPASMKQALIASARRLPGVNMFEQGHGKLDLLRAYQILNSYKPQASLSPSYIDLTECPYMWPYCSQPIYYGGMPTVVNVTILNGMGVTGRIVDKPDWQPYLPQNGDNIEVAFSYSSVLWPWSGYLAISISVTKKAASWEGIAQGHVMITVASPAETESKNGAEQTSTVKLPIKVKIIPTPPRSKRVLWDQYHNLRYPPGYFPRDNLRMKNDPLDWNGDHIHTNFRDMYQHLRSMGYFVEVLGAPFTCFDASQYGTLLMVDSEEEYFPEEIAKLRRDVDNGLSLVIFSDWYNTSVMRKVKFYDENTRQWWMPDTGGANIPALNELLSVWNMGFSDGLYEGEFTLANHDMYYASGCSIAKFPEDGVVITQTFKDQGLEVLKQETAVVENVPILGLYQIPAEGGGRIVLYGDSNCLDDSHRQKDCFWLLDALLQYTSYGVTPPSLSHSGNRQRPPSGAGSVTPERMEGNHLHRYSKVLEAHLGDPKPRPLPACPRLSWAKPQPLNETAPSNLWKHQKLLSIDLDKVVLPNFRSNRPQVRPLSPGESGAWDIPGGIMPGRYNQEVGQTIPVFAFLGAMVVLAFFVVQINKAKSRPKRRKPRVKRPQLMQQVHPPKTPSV
UniProt O43462: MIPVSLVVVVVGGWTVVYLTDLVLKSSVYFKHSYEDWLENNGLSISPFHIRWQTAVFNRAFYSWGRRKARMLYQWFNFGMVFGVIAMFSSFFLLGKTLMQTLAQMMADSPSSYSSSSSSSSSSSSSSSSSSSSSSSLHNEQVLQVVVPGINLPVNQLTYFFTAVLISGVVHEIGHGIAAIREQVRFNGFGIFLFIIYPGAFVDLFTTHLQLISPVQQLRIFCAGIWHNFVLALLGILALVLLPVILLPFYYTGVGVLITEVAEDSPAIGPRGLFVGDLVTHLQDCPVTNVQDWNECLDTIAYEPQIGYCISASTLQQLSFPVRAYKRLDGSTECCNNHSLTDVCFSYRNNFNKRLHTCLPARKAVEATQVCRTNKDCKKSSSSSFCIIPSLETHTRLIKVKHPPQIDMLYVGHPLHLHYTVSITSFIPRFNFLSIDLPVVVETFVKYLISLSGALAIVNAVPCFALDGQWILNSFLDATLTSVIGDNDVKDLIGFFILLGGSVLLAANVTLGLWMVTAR
UniProt Q9BQ69: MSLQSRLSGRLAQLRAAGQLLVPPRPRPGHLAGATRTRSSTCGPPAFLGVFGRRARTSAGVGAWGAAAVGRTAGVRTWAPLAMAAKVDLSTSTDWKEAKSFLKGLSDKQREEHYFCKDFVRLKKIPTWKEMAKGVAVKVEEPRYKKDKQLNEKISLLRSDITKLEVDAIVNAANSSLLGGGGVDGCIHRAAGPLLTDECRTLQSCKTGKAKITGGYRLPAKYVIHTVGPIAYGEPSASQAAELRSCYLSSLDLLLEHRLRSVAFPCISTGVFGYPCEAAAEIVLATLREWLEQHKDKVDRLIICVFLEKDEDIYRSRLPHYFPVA
UniProt O43318: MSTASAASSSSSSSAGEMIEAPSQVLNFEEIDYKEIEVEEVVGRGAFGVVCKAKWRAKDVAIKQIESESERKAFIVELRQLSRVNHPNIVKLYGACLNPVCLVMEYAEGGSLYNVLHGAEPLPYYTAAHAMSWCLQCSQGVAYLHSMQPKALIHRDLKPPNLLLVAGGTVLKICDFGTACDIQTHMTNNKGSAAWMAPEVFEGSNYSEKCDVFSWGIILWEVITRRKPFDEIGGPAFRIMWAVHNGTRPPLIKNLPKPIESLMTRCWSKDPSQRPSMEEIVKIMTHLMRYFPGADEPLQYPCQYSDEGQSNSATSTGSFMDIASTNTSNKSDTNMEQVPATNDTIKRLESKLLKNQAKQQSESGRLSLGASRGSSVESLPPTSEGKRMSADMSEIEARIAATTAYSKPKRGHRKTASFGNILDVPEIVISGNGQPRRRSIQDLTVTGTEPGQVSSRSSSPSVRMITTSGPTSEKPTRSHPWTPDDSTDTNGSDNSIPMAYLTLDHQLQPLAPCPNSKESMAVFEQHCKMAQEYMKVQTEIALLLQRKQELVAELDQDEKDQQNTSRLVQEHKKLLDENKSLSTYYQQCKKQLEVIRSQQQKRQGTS
UniProt Q8N5G2, 298-320: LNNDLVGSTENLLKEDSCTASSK
UniProt Q13163: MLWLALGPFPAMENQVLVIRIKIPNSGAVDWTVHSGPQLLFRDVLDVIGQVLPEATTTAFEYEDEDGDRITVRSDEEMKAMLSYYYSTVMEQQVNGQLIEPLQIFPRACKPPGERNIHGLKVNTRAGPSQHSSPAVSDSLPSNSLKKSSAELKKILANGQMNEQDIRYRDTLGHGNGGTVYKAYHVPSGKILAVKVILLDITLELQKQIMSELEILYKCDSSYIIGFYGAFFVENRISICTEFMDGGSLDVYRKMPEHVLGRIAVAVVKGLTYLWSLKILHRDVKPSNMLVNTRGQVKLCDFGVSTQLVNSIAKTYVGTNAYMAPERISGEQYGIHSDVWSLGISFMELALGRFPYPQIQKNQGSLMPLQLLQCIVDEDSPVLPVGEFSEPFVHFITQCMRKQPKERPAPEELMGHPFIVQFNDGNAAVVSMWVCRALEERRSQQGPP
UniProt Q9Y6D9: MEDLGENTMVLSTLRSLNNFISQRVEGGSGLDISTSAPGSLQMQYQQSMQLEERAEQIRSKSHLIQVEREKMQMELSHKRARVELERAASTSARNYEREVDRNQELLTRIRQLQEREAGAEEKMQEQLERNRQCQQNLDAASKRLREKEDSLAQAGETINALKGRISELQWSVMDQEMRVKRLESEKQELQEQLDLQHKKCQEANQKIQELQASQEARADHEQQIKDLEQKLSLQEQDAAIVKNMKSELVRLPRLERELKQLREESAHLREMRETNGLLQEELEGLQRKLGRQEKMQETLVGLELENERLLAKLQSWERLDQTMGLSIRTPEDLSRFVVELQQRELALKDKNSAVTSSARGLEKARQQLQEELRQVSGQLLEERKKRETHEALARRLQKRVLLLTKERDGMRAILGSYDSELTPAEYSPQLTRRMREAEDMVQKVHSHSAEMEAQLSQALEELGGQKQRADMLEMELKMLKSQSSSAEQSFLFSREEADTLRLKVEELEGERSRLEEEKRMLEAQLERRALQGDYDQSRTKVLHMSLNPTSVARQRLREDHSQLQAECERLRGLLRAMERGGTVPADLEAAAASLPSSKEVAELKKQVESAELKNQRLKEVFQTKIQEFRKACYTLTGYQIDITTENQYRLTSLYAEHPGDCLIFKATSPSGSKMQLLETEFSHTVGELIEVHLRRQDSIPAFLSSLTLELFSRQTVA

Compound: ClCC(=O)N[C@H]1CCCc2ccccc12
Experiment: log2 mean competition ratio of IA-DTB cysteine labelling (DMSO/compound) (log2 ratio); higher = stronger cysteine engagement by compound
Settings: 50 µM; treatment time: 4 h; cell line lysate: HEK293T
Method: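 IA-DTB competitive cysteine chemoproteomics in HEK293T RIPA lysate. Lysates were treated with compound 29 or 30 at 50 or 200 µM for 4 h, then IA-DTB (500 µM, 1 h), trypsin-digested, NeutrAvidin-enriched and analysed by diaPASEF. Competition ratio = intensity DMSO / intensity compound (n=4 treated, n=64 DMSO); binding: mean log2 CR ≥ 1 and p ≤ 0.05 plus QC filters. Target is the cysteine site.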

Target | log2 mean competition ratio
MARK3 C688 (UniProt P27448) | -0.17
LYN C203 (UniProt P07948) | -0.0692
MALT1 C317 (UniProt Q9UDY8) | 0.311
LYST C2168 (UniProt Q99698) | -0.207
MAP3K6 C232 (UniProt O95382) | 0.124
MAP3K20 C571 (UniProt Q9NYL2) | -0.19
MARS1 C333 | 0.0144
MAP3K21 C281 | 0.142
MAP1A C1086 (UniProt P78559) | 0.0946
MBNL3 C180 | 0.0322
MAP2K3 C227 (UniProt P46734) | 0.051
MCM6 C185 (UniProt Q14566) | -0.0238
MBTPS1 C849 (UniProt Q14703) | -0.499
MATR3 C552 (UniProt P43243) | -0.709
MBTPS2 C358 (UniProt O43462) | 0.484
MACROD1 C116 (UniProt Q9BQ69) | 0.104
MAP3K7 C527 (UniProt O43318) | -0.0202
MACO1 C315 (UniProt Q8N5G2) | -0.252
MAP2K5 C109 (UniProt Q13163) | -0.0974
MAD1L1 C662 (UniProt Q9Y6D9) | -0.261

Same assay, conditions: 200 µM; treatment time: 4 h; cell line lysate: HEK293T

Target | log2 mean competition ratio
MARK3 C688 (UniProt P27448) | -0.046
LYN C203 (UniProt P07948) | 0.128
MALT1 C317 (UniProt Q9UDY8) | -0.325
LYST C2168 (UniProt Q99698) | 0.433
MAP3K6 C232 (UniProt O95382) | 0.42
MAP3K20 C571 (UniProt Q9NYL2) | 0.408
MARS1 C333 | -0.34
MAP3K21 C281 | 0.101
MAP1A C1086 (UniProt P78559) | -0.292
MBNL3 C180 | 0.478
MAP2K3 C227 (UniProt P46734) | 0.248
MCM6 C185 (UniProt Q14566) | 0.213
MBTPS1 C849 (UniProt Q14703) | -0.0357
MATR3 C552 (UniProt P43243) | -0.118
MBTPS2 C358 (UniProt O43462) | 0.0357
MACROD1 C116 (UniProt Q9BQ69) | -0.172
MAP3K7 C527 (UniProt O43318) | 0.392
MACO1 C315 (UniProt Q8N5G2) | -0.0577
MAP2K5 C109 (UniProt Q13163) | 0.175
MAD1L1 C662 (UniProt Q9Y6D9) | 0.113
